For assay [1], the target named is T1, Bgcn yeast two-hybrid construct (Drosophila) (UniProt Q9W1I2).
T1 sequence: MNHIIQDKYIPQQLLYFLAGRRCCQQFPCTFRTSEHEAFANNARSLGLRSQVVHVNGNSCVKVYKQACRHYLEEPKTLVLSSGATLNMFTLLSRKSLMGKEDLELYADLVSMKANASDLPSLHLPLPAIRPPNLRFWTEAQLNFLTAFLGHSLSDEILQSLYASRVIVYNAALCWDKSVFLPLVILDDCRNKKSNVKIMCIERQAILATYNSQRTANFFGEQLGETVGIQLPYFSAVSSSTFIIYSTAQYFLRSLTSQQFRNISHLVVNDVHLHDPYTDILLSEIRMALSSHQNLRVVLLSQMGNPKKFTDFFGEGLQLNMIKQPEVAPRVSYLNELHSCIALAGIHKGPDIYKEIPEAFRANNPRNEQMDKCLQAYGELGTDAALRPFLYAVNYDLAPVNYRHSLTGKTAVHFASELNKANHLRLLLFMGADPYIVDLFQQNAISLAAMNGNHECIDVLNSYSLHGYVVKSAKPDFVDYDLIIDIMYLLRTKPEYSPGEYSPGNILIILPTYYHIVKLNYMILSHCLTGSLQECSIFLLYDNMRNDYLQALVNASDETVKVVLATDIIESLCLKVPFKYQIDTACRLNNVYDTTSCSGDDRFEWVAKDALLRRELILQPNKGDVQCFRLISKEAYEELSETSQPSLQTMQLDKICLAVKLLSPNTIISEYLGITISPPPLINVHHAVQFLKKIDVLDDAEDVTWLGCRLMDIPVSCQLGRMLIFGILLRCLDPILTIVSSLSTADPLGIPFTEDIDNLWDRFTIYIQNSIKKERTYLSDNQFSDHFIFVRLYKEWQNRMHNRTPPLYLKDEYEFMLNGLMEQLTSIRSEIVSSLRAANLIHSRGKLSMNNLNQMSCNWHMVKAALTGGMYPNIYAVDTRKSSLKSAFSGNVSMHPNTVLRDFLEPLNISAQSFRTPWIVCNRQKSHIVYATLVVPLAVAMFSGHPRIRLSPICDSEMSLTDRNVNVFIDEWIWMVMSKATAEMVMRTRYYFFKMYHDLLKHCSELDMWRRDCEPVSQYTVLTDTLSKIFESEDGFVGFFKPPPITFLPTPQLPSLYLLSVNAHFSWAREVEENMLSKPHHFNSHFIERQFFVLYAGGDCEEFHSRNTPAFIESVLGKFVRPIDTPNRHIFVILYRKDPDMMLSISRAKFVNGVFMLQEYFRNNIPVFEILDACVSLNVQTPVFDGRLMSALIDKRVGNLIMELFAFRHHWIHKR
The assay can be described thus: two-hybrid; LexA-based yeast two-hybrid, beta-galactosidase assay; pEG202 or pJG4.5 vectors.

Assay [2] has as its target T2, Mei-P26 (endogenous, ovary) (Drosophila (endogenous in ovaries)) (UniProt M9PH32).
T2 sequence: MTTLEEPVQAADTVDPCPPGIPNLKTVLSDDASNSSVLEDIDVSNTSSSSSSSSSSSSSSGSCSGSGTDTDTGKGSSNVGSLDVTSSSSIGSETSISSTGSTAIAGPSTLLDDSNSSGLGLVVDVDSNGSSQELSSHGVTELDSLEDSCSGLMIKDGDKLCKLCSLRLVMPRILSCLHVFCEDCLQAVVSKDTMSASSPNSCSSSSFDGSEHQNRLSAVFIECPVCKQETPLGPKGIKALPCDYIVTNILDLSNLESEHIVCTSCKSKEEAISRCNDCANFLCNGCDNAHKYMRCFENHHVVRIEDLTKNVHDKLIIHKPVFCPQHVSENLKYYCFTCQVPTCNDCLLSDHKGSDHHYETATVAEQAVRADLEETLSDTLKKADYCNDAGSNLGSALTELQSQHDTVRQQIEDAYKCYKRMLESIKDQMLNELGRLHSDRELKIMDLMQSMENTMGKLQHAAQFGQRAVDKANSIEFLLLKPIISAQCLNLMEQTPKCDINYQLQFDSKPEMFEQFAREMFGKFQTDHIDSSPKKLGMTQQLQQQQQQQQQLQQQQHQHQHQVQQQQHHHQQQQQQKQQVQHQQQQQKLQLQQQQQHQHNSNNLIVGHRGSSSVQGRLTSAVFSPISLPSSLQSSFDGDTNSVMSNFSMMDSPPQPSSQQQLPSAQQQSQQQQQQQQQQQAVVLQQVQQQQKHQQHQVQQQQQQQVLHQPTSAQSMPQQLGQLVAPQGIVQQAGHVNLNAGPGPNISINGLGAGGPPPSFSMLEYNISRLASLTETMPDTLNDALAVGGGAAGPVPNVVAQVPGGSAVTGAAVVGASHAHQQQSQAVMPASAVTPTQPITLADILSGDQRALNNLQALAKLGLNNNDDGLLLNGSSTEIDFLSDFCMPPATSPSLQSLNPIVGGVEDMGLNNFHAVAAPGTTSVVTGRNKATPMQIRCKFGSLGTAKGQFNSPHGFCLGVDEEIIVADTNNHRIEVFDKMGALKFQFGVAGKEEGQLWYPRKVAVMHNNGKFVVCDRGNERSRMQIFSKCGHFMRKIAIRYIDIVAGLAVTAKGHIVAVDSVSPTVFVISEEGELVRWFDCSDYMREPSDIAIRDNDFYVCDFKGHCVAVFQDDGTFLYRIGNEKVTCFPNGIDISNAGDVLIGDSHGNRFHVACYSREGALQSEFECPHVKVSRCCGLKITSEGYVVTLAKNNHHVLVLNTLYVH
The assay can be described thus: co-IP; extracts of 100 pairs of wild-type ovaries or 200 pairs of bam mutant ovaries (also ovaries with heat-shock induced Bam::HA; newly eclosed females); immunoprecipitation with anti-Mei-P26 antibodies, blots probed with anti-HA, anti-GFP, anti-Sxl.

No constants are given. Whether binding was seen depends on the method and setting. For some assays here: Binding seen in cells or lysates may run through a third protein. Some entries that bind do so weakly or less than the wild type. For some assays here: Where a sequence is shown, tags or fusion partners need not be part of it.

B1: Bam yeast two-hybrid construct (protein, UniProt P22745 1-442)
chain: MLNARDVCPEGNDDQQLDHNFKQMEEHLALMVEGNENEDPRKATCEYEDTNEDGATCTSGVLSEIQENFGRLRLCDVTAPLLEFHGLDCLQQIQKRSRHFAFDGSPAKKSRSGGVLVTGPKQKQLQKENVWNRKSKGSASADNIEKLPITIEKLHMIGLHGDCLEHNAVLRLMNLFRSLHDHLTADLGFSRQNSMPSDYLFDMPVKSTMPKSLNVRYQLQVLCTKVERFLVQQRRTLEANRHFDFEKYDECDKLLKGFASYLDNFKLLLKPKMRNRNGNSGSNADKFHTQRMERLLIGLRDWIKAAHLSVHVFNWEMDLEHRYSGAMTESHKSLNERAILLSGAELRAAEARGISAEDLFIAQRYKLGGPIYCVLEQHEFLSALIANPETYFPPSVVAICGPQKLGAVSMEQPSASEEEFEETEEVPSSPPRHTGRVPRFRS
As to B1, the binding entry in assay [1] is given as “binds”.

B2: Bam::HA (protein, UniProt P22745 1-442)
chain: MLNARDVCPEGNDDQQLDHNFKQMEEHLALMVEGNENEDPRKATCEYEDTNEDGATCTSGVLSEIQENFGRLRLCDVTAPLLEFHGLDCLQQIQKRSRHFAFDGSPAKKSRSGGVLVTGPKQKQLQKENVWNRKSKGSASADNIEKLPITIEKLHMIGLHGDCLEHNAVLRLMNLFRSLHDHLTADLGFSRQNSMPSDYLFDMPVKSTMPKSLNVRYQLQVLCTKVERFLVQQRRTLEANRHFDFEKYDECDKLLKGFASYLDNFKLLLKPKMRNRNGNSGSNADKFHTQRMERLLIGLRDWIKAAHLSVHVFNWEMDLEHRYSGAMTESHKSLNERAILLSGAELRAAEARGISAEDLFIAQRYKLGGPIYCVLEQHEFLSALIANPETYFPPSVVAICGPQKLGAVSMEQPSASEEEFEETEEVPSSPPRHTGRVPRFRS
In the case of B2, the binding result in assay [2] is on record as “binds”.

Values taken from PMC3603962.
